# Measurements from PubChem BioAssay (EPA / NIEHS).
# The chains behind the UniProt entries cited, without tags or fusion partners. Where a name states a change or a piece, a line headed by the entry shows the natural chain unless it says otherwise.
# UniProt P09237: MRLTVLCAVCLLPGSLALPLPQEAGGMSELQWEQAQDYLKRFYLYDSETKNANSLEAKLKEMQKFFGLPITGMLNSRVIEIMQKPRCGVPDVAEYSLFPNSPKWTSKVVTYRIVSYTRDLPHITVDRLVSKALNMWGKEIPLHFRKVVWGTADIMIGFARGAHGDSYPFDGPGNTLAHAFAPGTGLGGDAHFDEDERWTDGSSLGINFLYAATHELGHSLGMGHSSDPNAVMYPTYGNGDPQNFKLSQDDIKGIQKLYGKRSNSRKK
# UniProt P08253: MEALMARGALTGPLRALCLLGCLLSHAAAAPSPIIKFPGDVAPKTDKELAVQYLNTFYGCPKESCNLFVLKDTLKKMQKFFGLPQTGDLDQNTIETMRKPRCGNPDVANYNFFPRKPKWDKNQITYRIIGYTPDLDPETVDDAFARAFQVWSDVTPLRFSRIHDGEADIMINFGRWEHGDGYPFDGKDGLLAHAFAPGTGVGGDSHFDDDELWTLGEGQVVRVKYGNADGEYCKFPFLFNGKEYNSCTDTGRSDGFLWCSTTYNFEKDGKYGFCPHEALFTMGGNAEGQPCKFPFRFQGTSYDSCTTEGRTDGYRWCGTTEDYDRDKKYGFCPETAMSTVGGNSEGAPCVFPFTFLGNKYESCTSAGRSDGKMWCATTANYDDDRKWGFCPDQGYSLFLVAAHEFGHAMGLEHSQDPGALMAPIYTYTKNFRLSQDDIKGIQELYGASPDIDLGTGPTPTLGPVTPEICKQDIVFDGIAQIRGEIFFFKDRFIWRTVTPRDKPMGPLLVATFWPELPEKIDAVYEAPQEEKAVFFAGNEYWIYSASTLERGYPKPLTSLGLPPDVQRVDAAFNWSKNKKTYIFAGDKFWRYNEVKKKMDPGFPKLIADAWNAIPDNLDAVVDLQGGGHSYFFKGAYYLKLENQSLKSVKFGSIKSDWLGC
# UniProt P08254: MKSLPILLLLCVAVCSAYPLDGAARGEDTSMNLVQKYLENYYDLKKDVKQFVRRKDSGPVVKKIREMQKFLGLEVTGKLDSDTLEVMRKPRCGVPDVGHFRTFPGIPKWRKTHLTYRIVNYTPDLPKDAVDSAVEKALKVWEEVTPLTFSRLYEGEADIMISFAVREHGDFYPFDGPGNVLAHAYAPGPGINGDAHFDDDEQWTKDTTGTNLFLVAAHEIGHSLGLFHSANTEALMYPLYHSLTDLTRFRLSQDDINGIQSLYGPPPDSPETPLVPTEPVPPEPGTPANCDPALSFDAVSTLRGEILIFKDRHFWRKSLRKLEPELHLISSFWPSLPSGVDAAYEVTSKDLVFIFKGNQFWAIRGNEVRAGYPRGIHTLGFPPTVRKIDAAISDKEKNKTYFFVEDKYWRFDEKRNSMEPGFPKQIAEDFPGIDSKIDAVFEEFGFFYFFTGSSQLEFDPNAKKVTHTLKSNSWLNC
# UniProt O75582, whole entry, looked up: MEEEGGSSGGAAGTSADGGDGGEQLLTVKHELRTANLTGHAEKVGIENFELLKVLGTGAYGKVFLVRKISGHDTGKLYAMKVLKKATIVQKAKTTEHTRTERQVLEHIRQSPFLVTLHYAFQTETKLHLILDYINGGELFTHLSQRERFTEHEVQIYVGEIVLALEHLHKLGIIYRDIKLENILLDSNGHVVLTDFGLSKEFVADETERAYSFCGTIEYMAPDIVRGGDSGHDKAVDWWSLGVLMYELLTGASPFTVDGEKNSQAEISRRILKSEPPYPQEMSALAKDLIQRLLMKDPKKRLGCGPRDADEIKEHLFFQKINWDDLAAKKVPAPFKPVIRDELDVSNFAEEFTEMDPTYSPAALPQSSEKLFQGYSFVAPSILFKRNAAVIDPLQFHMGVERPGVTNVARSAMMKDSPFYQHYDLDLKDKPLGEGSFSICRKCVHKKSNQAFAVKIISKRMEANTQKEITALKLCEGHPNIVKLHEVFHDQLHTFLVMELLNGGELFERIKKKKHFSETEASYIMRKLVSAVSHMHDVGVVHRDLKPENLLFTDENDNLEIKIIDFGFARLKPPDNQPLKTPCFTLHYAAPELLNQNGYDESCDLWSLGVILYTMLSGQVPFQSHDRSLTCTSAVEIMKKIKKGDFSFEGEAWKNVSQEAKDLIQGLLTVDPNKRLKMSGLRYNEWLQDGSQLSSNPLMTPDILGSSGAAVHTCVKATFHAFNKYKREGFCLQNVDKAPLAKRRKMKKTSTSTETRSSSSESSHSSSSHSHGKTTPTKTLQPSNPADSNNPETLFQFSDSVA
# UniProt P14780: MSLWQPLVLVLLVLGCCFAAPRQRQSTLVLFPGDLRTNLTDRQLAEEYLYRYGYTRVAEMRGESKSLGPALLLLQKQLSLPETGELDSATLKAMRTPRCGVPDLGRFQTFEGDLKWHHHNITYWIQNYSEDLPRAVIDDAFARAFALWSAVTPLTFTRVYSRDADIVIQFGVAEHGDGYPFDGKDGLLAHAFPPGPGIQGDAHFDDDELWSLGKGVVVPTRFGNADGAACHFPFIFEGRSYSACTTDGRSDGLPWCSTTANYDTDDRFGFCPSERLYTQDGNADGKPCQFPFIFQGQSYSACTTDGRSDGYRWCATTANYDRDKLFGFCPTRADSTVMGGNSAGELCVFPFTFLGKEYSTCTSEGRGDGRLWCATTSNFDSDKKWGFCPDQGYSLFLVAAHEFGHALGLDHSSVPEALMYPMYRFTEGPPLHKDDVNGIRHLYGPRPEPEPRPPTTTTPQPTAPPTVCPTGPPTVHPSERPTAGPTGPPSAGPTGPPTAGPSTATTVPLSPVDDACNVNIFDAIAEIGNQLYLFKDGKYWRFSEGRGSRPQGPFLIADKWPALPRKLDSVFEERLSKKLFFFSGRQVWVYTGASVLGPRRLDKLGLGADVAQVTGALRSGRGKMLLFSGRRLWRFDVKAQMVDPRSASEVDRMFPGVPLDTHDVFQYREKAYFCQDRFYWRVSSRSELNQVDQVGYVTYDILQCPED
# UniProt P27815: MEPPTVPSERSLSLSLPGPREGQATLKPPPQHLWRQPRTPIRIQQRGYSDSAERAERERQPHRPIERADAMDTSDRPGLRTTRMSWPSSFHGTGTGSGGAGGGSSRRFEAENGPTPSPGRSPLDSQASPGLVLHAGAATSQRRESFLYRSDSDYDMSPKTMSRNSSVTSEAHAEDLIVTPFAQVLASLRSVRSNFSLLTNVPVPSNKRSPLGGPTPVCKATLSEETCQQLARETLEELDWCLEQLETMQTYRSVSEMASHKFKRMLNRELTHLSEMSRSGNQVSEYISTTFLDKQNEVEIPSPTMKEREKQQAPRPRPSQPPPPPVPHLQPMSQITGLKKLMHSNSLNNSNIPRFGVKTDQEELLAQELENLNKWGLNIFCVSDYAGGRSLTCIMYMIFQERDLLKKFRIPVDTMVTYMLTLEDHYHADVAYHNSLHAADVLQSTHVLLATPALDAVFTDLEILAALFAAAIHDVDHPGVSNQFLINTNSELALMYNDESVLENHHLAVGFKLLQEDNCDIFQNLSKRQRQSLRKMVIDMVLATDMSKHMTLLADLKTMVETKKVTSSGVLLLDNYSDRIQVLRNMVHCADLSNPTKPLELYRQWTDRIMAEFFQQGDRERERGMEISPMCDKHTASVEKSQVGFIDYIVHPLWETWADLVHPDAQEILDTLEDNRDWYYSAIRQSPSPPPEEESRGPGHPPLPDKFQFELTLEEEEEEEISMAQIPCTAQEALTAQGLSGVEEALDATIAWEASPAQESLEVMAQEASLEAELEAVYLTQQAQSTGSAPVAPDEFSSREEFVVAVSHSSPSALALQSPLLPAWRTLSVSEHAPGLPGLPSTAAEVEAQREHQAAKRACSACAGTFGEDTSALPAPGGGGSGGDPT
# The shares of active, inactive and inconclusive entries below differ from those in the screen. Where the call is inconclusive, the potency comes from a doubtful curve fit. Calls of active or inactive are those of the source. Rule for the calls: active = hit-call score of the fitted dose curve at least 0.9, where 1 is the maximum; inconclusive = response in the unintended direction; inactive = score below 0.9.
# Biological target: human Matrix Metalloproteinase-7 (MMP7), MMP7 (gene 4316) (UniProt P09237)
# Assay: NVS_ENZ_hMMP7: NovaScreen (NVS) Enzymatic Assay for human Matrix Metalloproteinase-7 (MMP7) (AID 2283183)
# Procedure, shortened: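 Compounds first tested at 25 uM in duplicate, then at up to 50 uM in concentration series if active. Protease activity measured by fluorescence intensity 1 h after dosing, with fitting relative to DMSO.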
Compound,AC50,outcome
CCCCOC(=O)C(C)Oc1ccc(Oc2ccc(C(F)(F)F)cn2)cc1 (stereo not drawn),inconclusive: 25 µM,
C[C@]12CC[C@@H]3c4ccc(O)cc4CC[C@H]3[C@@H]1CC[C@H]2O,,inactive
CNC(=O)[C@H]1O[C@@H](n2cnc3c(NCc4cc(Cl)ccc4OCc4cc(C)no4)ncnc32)[C@H](O)[C@@H]1N,,inactive
CC1(C)C(C=C(Cl)Cl)C1C(=O)OCc1cccc(Oc2ccccc2)c1 (stereo not drawn),,inactive

# Biological target: human Matrix Metalloproteinase-2 (MMP2), MMP2 (gene 4313) (UniProt P08253)
# Assay: NVS_ENZ_hMMP2: NovaScreen (NVS) Enzymatic Assay for human Matrix Metalloproteinase-2 (MMP2) (AID 2283184)
# Procedure, shortened: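 Compounds first screened in duplicate at a single 25 uM, with actives followed up in concentration series. Recombinant human MMP2 cleaves a fluorogenic substrate; fluorescence taken at 1 h, inhibition fitted relative to DMSO.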
Compound,outcome,AC50
C=CCCCCCCCCC(=O)O,inactive,
NC(=O)NN=Cc1ccc([N+](=O)[O-])o1,,inconclusive: 25 µM
CCN(Cc1cccnc1)C(=O)c1cccc(Cl)c1[C@]1(C)C(=O)N(Cc2ccc(OC)cc2OC)c2ccc(Cl)cc21,,active: 14.8 µM

# Biological target: human Matrix Metalloproteinase-3 (MMP3), MMP3 (gene 4314) (UniProt P08254)
# Assay: NVS_ENZ_hMMP3: NovaScreen (NVS) Enzymatic Assay for human Matrix Metalloproteinase-3 (MMP3) (AID 2283185)
# Procedure, shortened: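 Fluorescent substrate turnover by recombinant MMP3 read after 1 h, signal loss scored against DMSO. Compounds first run in duplicate at 25 uM single dose, then actives confirmed by concentration series.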
Compound,outcome,AC50
CCCCCCCCOc1ccc(C(=O)c2ccccc2)c(O)c1,inactive,
CCCCc1oc2ccccc2c1C(=O)c1cc(I)c(OCCN(CC)CC)c(I)c1,,inconclusive: 18.9 µM
CCCOC(=O)c1cc(O)c(O)c(O)c1,,active: 11.9 µM
O=c1c(O)c(-c2ccc(O)c(O)c2)oc2cc(O)cc(O)c12,,inconclusive: 25 µM
CN(C[C@@H](CC[N+]12CCC(C3CCCCC3)(CC1)CC2)c1ccc(Cl)c(Cl)c1)C(=O)c1cc(C(F)(F)F)cc(C(F)(F)F)c1,,inconclusive: 6.81 µM
CSc1ccc(Oc2ccc(S(N)(=O)=O)cc2CN(C)C)cc1C,,inconclusive: 25 µM
Cc1c(C)c2c(c(C)c1O)CCC(C)(COc1ccc(CC3SC(=O)NC3=O)cc1)O2 (stereo not drawn),,inconclusive: 0.00229 µM

# Biological target: human Mitogen- and Stress-activated Protein Kinase-1 (Msk1), RPS6KA5 (gene 9252) (UniProt O75582)
# Assay: NVS_ENZ_hMsk1: NovaScreen (NVS) Enzymatic Assay for human Mitogen- and Stress-activated Protein Kinase-1 (Msk1) (AID 2283187)
# Procedure, shortened: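 Chemicals first run in duplicate at 25 uM, with actives followed up in singleton concentration series to 50 uM maximum. Enzyme activity came from substrate/product mobility-shift separation with fluorescence detection after 1 h incubation of the recombinant protein.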
Compound,outcome,AC50
O=C(O)c1ccccc1C(=O)OCc1ccccc1,inactive,
CCCCOC(=O)C(C)Oc1ccc(Oc2ccc(C(F)(F)F)cn2)cc1 (stereo not drawn),,inconclusive: 25 µM
C[C@]12CC[C@@H]3c4ccc(O)cc4CC[C@H]3[C@@H]1CC[C@H]2O,,inconclusive: 25 µM
O=C(c1ccc(O)cc1O)c1ccc(O)cc1O,,active: 24.1 µM
COc1ccc(S(=O)(=O)N2C(=O)[C@@](c3ccccc3OC)(N3C[C@H](O)C[C@H]3C(=O)N(C)C)c3cc(Cl)ccc32)c(OC)c1,,inconclusive: 45.3 µM

# Biological target: human Matrix Metalloproteinase-9 (MMP9), MMP9 (gene 4318) (UniProt P14780)
# Assay: NVS_ENZ_hMMP9: NovaScreen (NVS) Enzymatic Assay for human Matrix Metalloproteinase-9 (MMP9) (AID 2283190);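 note: cell-free recombinant MMP9 protease activity read by fluorescent substrate signal; active means inhibition seen as loss of fluorescence signal versus DMSO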
# Procedure, shortened: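 Extracted enzyme, fluorescent substrate, 1 h post-dose read. Single conc 25 uM in duplicate, then concentration series for actives. Activity = signal loss relative to DMSO negative control.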
Compound,AC50,outcome
C/C=C\C/C=C/CCCCCCCCOC(C)=O,active: 13.7 µM,
COc1cccc([C@H](O)C2CCN(CCc3ccc(F)cc3)CC2)c1OC,inconclusive: 43.2 µM,
CN(Cc1cnc2nc(N)nc(N)c2n1)c1ccc(C(=O)N[C@@H](CCC(=O)O)C(=O)O)cc1,inconclusive: 27.6 µM,
c1ccc2occc2c1,,inactive
O=C(c1ccccc1)c1ccc(O)cc1O,active: 13.7 µM,
CN(C)C(=O)C1(N2CCCCC2)CCN(CC[C@@]2(c3ccc(Cl)c(Cl)c3)CN(C(=O)c3ccccc3)CCO2)CC1,,inactive
c1ccc2sc(SN(C3CCCCC3)C3CCCCC3)nc2c1,inconclusive: 0.00119 µM,

# Given bar-delimited: part of the list above.
Compound | AC50 | outcome
COc1cccc([C@H](O)C2CCN(CCc3ccc(F)cc3)CC2)c1OC | inconclusive: 43.2 µM | 
CN(Cc1cnc2nc(N)nc(N)c2n1)c1ccc(C(=O)N[C@@H](CCC(=O)O)C(=O)O)cc1 | inconclusive: 27.6 µM | 
c1ccc2occc2c1 |  | inactive

# Biological target: human Phosphodiesterase 4A1 (PDE4A1), PDE4A (gene 5141) (UniProt P27815)
# Assay: NVS_ENZ_hPDE4A1: NovaScreen (NVS) Enzymatic Assay for human Phosphodiesterase 4A1 (PDE4A1) (AID 2283191)
# Procedure, shortened: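 Fluorescent substrate turnover by recombinant PDE4A1 read after 1 h by mobility-shift separation. Primary duplicate screen at 25 uM; hits retested in concentration series with a 50 uM maximum, relative to DMSO.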
Compound,AC50,outcome
O=c1[nH]cnc2c1ncn2[C@H]1CC[C@@H](CO)O1,inconclusive: 25 µM,
C=CCCCCCCCCC(=O)O,,inactive
C[C@]12CC[C@@H]3c4ccc(O)cc4CC[C@H]3[C@@H]1CC[C@@H]2O,inconclusive: 0.24 µM,
CCCCC(CC)C(=O)OCCOCCOCCOC(=O)C(CC)CCCC (stereo not drawn),inconclusive: 25 µM,
CCO[Si](CCCNC(N)=O)(OCC)OCC,inconclusive: 25 µM,
CNC(=O)[C@H]1O[C@@H](n2cnc3c(NCc4cc(Cl)ccc4OCc4cc(C)no4)ncnc32)[C@H](O)[C@@H]1N,inconclusive: 25 µM,
COCC(C)OCC(C)OCC(C)O (stereo not drawn),inconclusive: 25 µM,
NCC1(Cc2noc(=O)[nH]2)CCCCC1,inconclusive: 44.5 µM,

# Biological target: cAMP-dependent protein kinase catalytic subunit alpha (Homo sapiens) (UniProt P17612)
# Assay: NVS_ENZ_hPKA: NovaScreen (NVS) Enzymatic Assay for human Protein Kinase A (PKA) (AID 2283192)
# Procedure, shortened: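 Cell-free kinase activity read by fluorescence after mobility-shift separation of substrate and product, 1 h post-dosing. Single-concentration duplicate screen (25 uM) preceded singleton concentration series (top 50 uM); loss of signal versus DMSO.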
Compound,AC50,outcome
O=c1[nH]cnc2c1ncn2[C@H]1CC[C@@H](CO)O1,inconclusive: 42.5 µM,
COc1ccc(OC(F)(F)F)cc1CN[C@H]1CCCN[C@H]1c1ccccc1,,inactive
CNC(=O)[C@H]1O[C@@H](n2cnc3c(NCc4cc(Cl)ccc4OCc4cc(C)no4)ncnc32)[C@H](O)[C@@H]1N,,inactive
NCC1(Cc2noc(=O)[nH]2)CCCCC1,inconclusive: 25 µM,
